Experimental data published in PubChem BioAssay AID504444 (National Center for Advancing Translational Sciences (NCATS), 2011).
Among all 360,000 compounds or so, about 7,500 (2.1%) were called active. Inconclusive results, whose numbers are uncertain, are shown with a selection of clear calls. The call rests on the fitted dose curve; in most records, active means well fitted inhibition curve with a large enough effect; inconclusive means small, poorly fitted or top-dose-only effect, or effect the other way; inactive means flat fitted curve, though single readings scatter. Potencies of inconclusive entries are doubtful fits and often do not repeat.
On the % scale 0 is the no-effect control and ±100 the full control effect; potency means the concentration at half of the fitted maximal effect.

Assay: Nrf2 qHTS screen for inhibitors; further: nearly all actives have a fitted effect of over 60% in size
Conditions: A549 ARE-Fluc reporter, luciferase luminescence, 18-24 h; activity change, negative = inhibition: at 46 µM (top of the series)
Method in brief: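 Nrf2 function is reported as luminescence of an ARE-controlled luciferase in A549 cells. Compounds were tested at several concentrations, and a CellTiter-Fluor read on the same wells flagged cytotoxicity.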
With Cc1ccc(Nc2cc(=O)[nH]c(=O)[nH]2)cc1Cl the Potency was inconclusive: 2.59 µM [activator, partial curve, poor fit].
In the case of O=C(Nc1cccc(Cl)c1)Nc1ccccc1-n1ccnc1, the Potency is reported as inconclusive: 29.1 µM [activator, single point].
With CC(C)C(C)NC(=O)COc1ccc(OCc2ccccc2)cc1 (stereo unspecified) the Potency was inconclusive: 18.4 µM [falling, partial curve].
With CCCCOc1ccccc1C(=O)NNC(=S)NC(=O)c1ccccc1[N+](=O)[O-] the Potency was inconclusive: 18.4 µM [falling, single point].
In the case of CCOC1(c2ccccc2)CC1C(=O)N/N=C/c1cccc([N+](=O)[O-])c1 (stereo unspecified), the Potency is reported as active: 18.4 µM.
With COc1ccc(NC(=O)C2CCCN(S(=O)(=O)c3cccc4nonc34)C2)c(OC)c1 (stereo unspecified) the “activity change, negative = inhibition” value was inactive: -15.8%.
For COc1cc2c(cc1OC)CN(C(=O)c1cccc(S(=O)(=O)N3CCc4ccccc43)c1)CC2, the Potency was inconclusive: 29.1 µM [falling, single point].
With Nc1c(N(CCC2=CCCCC2)C(=O)COc2ccc(F)cc2Cl)c(=O)[nH]c(=O)n1Cc1ccccc1 the Potency was active: 23.1 µM.
For Cc1oc(-c2ccccc2F)nc1Cn1c(SCc2cccc(Cl)c2)nc2ccncc21, the Potency was inconclusive: 29.1 µM [falling, single point].
In the case of O=c1c2c(nc3cc(-c4ccc(Br)cc4)[nH]n13)CCCC2, the Potency is reported as inconclusive: 11.6 µM [activator, single point].
With CCOCCc1nn2c(=O)cc(COC(=O)c3ccccc3Br)nc2s1 the Potency was inconclusive: 16.4 µM [activator, single point].
In the case of CCc1ccc(C(=O)NC(=S)Nc2ccc(N3CCOCC3)cc2)cc1, the Potency is reported as inconclusive: 11.6 µM [falling, partial curve, poor fit].
With CC(C)c1nnc(NC(=O)C2CCN(C(=O)C(C)(C)C)CC2)s1 the “activity change, negative = inhibition” value was inactive: -10%.
With CCCC(=O)Nc1sc(-c2ccccc2)c(-c2ccccc2)c1C(=O)O the Potency was inconclusive: 29.1 µM [falling, single point].
For O=C(Nc1ccc(F)cc1)N1CCN(c2nc3ccccc3s2)CC1, the Potency was active: 20.6 µM.
For CC1=NN(c2cccc(C(=O)O)c2)C(=O)/C1=C\C=C/c1ccccc1, the Potency was inconclusive: 25.9 µM [activator, single point].
In the case of CCC(=O)c1ccc(OCC(=O)OCC(=O)Nc2cccc(S(=O)(=O)N3CCCC3)c2)cc1, the Potency is reported as inconclusive: 14.6 µM [falling, partial curve, poor fit].
In the case of Cc1ccc(C(C)C)c(OCc2ccc(-c3nnco3)cc2)c1, the Potency is reported as inconclusive: 23.1 µM [falling, single point].
For COc1cccc(-c2noc(COc3cccc(C)c3C)n2)c1, the Potency was inconclusive: 14.6 µM [activator, partial curve, poor fit].
For CN(C)c1ccc(/C=N/n2cnn(Cc3ccccc3Cl)c2=S)cc1, the Potency was inconclusive: 18.4 µM [activator, partial curve, poor fit].
With Cc1ccc(C(c2cc(Cl)c3cccnc3c2O)N2CCN(C)CC2)cc1 (stereo unspecified) the Potency was inconclusive: 29.1 µM [falling, partial curve, poor fit].
For CCC(CO)n1cnnc1-c1ccncc1 (stereo unspecified), the Potency was inconclusive: 0.164 µM [activator, full curve, poor fit].
With COc1ccc(COC(=O)C2=C(C)NC(=O)NC2c2ccccc2F)cc1 (stereo unspecified) the Potency was inconclusive: 18.4 µM [falling, partial curve, poor fit].
In the case of CCOC(=O)c1c(NC(=O)COc2ccc(OC)cc2)sc(C(=O)N(CC)CC)c1C, the Potency is reported as active: 23.1 µM.
With CCCCN(CC)CCNC(=O)c1nn(-c2ccc(OC)cc2)c(=O)c2c1c1ccccc1n2C the Potency was inconclusive: 23.1 µM [activator, single point].
With CC(=O)Nc1ccc(S(=O)(=O)N2CCC(C(=O)c3ccc(F)cc3)CC2)cc1 the Potency was inconclusive: 20.6 µM [falling, single point].
For COc1ccccc1C(=O)Nc1cc(C)on1, the Potency was inconclusive: 10.3 µM [activator, partial curve].
In the case of COC(=O)c1sc(NC(=O)c2cc3c(s2)CCCC3)nc1C, the Potency is reported as inconclusive: 0.731 µM [activator, full curve, poor fit].
For Cc1ccnc(NC(=O)c2cnc(Cl)c(Cl)c2)c1, the Potency was inconclusive: 20.6 µM [activator, partial curve].
With CC1CCN(C(=O)CS(=O)(=O)Cc2ccccc2)CC1 the Potency was inconclusive: 20.6 µM [activator, single point].
In the case of COc1ccc(C(=O)NC(=S)NNC(=O)c2ccccc2O)cc1, the Potency is reported as inconclusive: 29.1 µM [falling, single point].
For CC(C)=CCc1c(-c2ccc(O)cc2O)oc2c3c(cc(O)c2c1=O)OC(C)(C)C=C3, the Potency was inconclusive: 18.4 µM [falling, single point].
For COc1ccc(-c2sc3ccc(N4CCOCC4)cc3c2C#CCO)cc1, the Potency was active: 16.4 µM.
With COc1ccc(CN(C)C(=O)CCN=C2NS(=O)(=O)c3ccccc32)c(OC)c1 the Potency was inconclusive: 25.9 µM [falling, single point].
In the case of COc1ccc(N2C(=O)c3ccccc3NC2c2cccnc2)cc1 (stereo unspecified), the Potency is reported as inconclusive: 23.1 µM [activator, single point].
For COc1ccc2cc(CCNC(=O)c3ccco3)c(=O)[nH]c2c1, the Potency was inconclusive: 2.59 µM [activator, partial curve, poor fit].
In the case of CSc1nc(N)nc(SCC(=O)C(C)(C)C)c1C#N, the “activity change, negative = inhibition” value is reported as inactive: 19.7%.
With COc1ccc(-c2noc(CNC(=O)c3ccc(OC)cc3OC)n2)cc1 the Potency was inconclusive: 29.1 µM [falling, single point].
With CCC1=Nc2cc(C(=O)N3CCC(C)CC3)ccc2Sc2ccc(C)cc21 the Potency was active: 18.4 µM.
With Cc1ccc(C)c(NC(=O)C2CCCN2S(=O)(=O)c2ccc3c(c2)CCCC(=O)N3)c1 (stereo unspecified) the Potency was inconclusive: 16.4 µM [falling, single point].
With CC1=Nn2c(nc3sc4c(c3c2=O)CCCC4)SC1 the Potency was inconclusive: 4.61 µM [activator, full curve].
With COc1cc(NC(=O)c2cccc([N+](=O)[O-])c2)ccc1NC(=O)c1ccco1 the “activity change, negative = inhibition” value was inactive: 12.3%.
For Cc1ccc(NC(=S)N/N=C/c2ccc(OCCC(C)C)cc2)c(C)c1, the “activity change, negative = inhibition” value was inactive: 0.164%.
In the case of O=C(CN1C(=O)NC2(CCCC2)C1=O)NCc1ccc(Cl)cc1, the “activity change, negative = inhibition” value is reported as inactive: -9.15%.
With CCOC(=O)Cc1csc(NC(=O)/C=C/c2ccc(Br)o2)n1 the Potency was inconclusive: 20.6 µM [falling, partial curve, poor fit].
With CN1CCN(C(=S)SCc2nc(N)nc(Nc3ccc(F)cc3)n2)CC1 the “activity change, negative = inhibition” value was inactive: 9.88%.
For COc1ccc(N2CC(c3nc(-c4ccccc4C)no3)CC2=O)cc1Cl (stereo unspecified), the “activity change, negative = inhibition” value was inactive: -24.8%.
With FC(F)(F)c1ccccc1-n1c(CN2CCCCC2)n[nH]c1=S the Potency was inconclusive: 0.58 µM [activator, full curve].
For CC(=O)Nc1cccc(C(=O)OC(C(=O)c2ccc(C)c(C)c2)c2ccccc2)c1 (stereo unspecified), the Potency was inconclusive: 20.6 µM [falling, single point].
In the case of Brc1ccc2ncnc(NCc3cccnc3)c2c1, the Potency is reported as inconclusive: 29.1 µM [falling, single point].
In the case of CN(C)c1ccc(NC(=S)c2ccccn2)cc1, the Potency is reported as inconclusive: 29.1 µM [falling, single point].
With O=C(N/N=C/c1ccco1)c1cc(-c2cccc(Br)c2)nc2ccccc12 the Potency was inconclusive: 25.9 µM [falling, single point].
For COc1ccc(NC(=O)CSc2nc3sc(C)cc3c(=O)n2C)cc1, the “activity change, negative = inhibition” value was inactive: -7.76%.
With CCc1ccc(NS(=O)(=O)c2ccc3[nH]cc(C(=O)NCCc4ccccc4)c(=O)c3c2)cc1 the Potency was inconclusive: 5.8 µM [activator, partial curve, poor fit].
In the case of O=C(Nc1ncc(Cc2cccc(Cl)c2)s1)c1ccc([N+](=O)[O-])cc1, the Potency is reported as inconclusive: 9.2 µM [falling, partial curve, poor fit].
With O=c1sc2ccccc2n1CCCOc1ccccc1 the Potency was inconclusive: 20.6 µM [activator, single point].
For COc1ccc(NS(=O)(=O)c2cc(NC(=O)c3ccc(C)o3)ccc2N2CCCCC2)cc1, the Potency was inconclusive: 14.6 µM [falling, partial curve, poor fit].
For Cc1ccc(S(=O)(=O)N2CCCN(C(C)c3nc4ccccc4c(=O)[nH]3)CC2)cc1 (stereo unspecified), the Potency was inconclusive: 20.6 µM [falling, single point].
For CCN(CC)CCn1c(C)nc2c(sc3nc4c(cc32)COC(C)(C)C4)c1=O, the Potency was inconclusive: 29.1 µM [activator, single point].
In the case of Cc1sc2nc(SCC(=O)OC(C)C)n(C)c(=O)c2c1C, the “activity change, negative = inhibition” value is reported as inactive: 1.52%.
With O=C(Nc1nc(-c2cc(F)ccc2F)cs1)C1=NN(c2ccccc2)C(=O)CC1 the “activity change, negative = inhibition” value was inactive: 8.43%.
With CCOc1ccccc1C(=O)NCC(=O)NC(C)c1ccc(-n2ccnc2)cc1 (stereo unspecified) the Potency was inconclusive: 16.4 µM [falling, partial curve, poor fit].
For CCN(CC(=O)Nc1ccccc1C(F)(F)F)C(=O)c1cc(-c2ccccc2)nn1-c1ccccc1, the Potency was inconclusive: 1.46 µM [falling, partial curve, poor fit].
In the case of O=C(CC(=O)c1ccccc1)Nc1ccccn1, the Potency is reported as inconclusive: 29.1 µM [activator, single point].
In the case of CN(Cc1ccccc1)C(=O)CSc1nc2ccccc2c(=O)n1Cc1ccco1, the Potency is reported as inconclusive: 29.1 µM [falling, single point].
For Cc1ccc(C(=O)C(C)OC(=O)CCN=C2NS(=O)(=O)c3ccccc32)cc1 (stereo unspecified), the Potency was inconclusive: 20.6 µM [falling, partial curve].
